Results published in the supplement of paper PMC12819154, “High-throughput peptide-centric local stability assay extends protein–ligand identification to membrane proteins, tissues and bacteria” (Nature Structural & Molecular Biology, 2025).
The list shows a part of the results. Most entries show no effect beyond the scatter of the controls.

By UniProt entry, the sequences of proteins in these tests, tags left out. Where a name states a change or a piece, a line headed by the entry shows the natural chain unless it says otherwise.
UniProt O35739: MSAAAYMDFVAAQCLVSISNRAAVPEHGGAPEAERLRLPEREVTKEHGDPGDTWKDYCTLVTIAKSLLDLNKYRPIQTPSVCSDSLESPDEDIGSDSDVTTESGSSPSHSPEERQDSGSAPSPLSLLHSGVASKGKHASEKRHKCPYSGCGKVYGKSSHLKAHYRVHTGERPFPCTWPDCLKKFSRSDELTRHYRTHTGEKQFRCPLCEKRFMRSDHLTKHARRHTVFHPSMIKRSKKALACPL
UniProt O88888: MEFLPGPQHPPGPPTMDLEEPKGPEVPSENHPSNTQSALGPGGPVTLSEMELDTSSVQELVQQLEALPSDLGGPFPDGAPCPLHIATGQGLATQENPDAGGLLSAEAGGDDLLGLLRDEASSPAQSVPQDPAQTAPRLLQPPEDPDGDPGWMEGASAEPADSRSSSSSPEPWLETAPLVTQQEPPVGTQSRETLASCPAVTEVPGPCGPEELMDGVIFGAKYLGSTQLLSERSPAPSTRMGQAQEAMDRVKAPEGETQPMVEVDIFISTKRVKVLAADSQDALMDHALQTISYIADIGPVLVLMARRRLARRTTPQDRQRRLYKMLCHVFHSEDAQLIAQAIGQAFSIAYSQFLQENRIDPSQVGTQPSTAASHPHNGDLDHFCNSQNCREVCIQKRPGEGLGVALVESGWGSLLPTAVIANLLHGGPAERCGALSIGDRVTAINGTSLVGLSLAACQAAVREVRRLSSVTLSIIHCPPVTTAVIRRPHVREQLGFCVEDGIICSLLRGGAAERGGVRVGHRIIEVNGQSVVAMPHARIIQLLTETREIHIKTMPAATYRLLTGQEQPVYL
UniProt O35654: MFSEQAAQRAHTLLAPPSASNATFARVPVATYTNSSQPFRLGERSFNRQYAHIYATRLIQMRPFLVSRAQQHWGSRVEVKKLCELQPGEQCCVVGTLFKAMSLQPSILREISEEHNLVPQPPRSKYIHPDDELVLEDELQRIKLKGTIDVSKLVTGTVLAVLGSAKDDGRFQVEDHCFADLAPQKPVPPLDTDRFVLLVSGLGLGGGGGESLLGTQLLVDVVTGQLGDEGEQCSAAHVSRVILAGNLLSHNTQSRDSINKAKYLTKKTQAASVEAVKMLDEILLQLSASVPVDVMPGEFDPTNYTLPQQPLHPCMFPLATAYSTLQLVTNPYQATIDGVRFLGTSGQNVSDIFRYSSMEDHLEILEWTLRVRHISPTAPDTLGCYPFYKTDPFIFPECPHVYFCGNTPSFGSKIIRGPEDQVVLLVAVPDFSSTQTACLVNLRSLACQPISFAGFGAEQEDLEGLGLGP
UniProt O70152: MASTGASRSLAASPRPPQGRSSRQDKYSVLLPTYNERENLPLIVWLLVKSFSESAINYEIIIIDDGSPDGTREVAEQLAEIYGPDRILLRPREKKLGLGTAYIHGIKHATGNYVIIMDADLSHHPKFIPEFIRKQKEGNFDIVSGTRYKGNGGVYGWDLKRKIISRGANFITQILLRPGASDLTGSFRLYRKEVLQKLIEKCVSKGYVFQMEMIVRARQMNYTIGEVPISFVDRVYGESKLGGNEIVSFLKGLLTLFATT
UniProt O35892: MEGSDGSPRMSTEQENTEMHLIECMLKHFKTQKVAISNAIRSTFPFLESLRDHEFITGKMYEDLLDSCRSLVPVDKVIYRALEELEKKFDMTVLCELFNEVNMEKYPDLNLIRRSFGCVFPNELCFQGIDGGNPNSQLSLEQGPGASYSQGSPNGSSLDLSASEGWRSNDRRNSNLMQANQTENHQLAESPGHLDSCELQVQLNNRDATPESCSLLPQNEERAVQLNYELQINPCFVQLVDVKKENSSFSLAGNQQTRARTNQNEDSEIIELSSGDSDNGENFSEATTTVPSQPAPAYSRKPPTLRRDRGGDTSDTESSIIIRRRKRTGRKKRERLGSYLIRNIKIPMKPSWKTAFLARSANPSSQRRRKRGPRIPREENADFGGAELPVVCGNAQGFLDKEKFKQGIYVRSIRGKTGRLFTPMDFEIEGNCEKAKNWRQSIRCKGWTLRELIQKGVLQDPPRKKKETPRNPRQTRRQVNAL
UniProt O54786: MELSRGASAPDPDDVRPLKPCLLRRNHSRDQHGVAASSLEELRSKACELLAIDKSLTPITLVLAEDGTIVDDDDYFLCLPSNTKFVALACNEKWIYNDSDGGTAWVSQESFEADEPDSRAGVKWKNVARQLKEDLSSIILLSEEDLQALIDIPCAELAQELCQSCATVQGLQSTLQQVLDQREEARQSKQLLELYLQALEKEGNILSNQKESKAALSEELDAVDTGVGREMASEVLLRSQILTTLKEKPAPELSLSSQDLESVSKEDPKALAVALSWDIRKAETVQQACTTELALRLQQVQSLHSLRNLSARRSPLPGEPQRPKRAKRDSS
UniProt O54750: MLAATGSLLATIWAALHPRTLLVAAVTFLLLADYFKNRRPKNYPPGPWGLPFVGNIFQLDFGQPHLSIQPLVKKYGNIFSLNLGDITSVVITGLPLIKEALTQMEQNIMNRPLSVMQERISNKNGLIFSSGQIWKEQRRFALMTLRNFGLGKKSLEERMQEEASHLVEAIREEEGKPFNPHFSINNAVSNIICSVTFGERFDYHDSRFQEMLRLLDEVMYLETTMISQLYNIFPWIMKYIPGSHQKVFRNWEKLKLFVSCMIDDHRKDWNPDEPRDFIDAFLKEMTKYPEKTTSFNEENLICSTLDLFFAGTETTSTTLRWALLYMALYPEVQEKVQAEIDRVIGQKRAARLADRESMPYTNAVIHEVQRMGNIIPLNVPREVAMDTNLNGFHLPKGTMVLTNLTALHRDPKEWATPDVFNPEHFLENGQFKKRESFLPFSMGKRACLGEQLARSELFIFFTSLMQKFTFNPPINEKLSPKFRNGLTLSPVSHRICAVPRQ
UniProt O70475: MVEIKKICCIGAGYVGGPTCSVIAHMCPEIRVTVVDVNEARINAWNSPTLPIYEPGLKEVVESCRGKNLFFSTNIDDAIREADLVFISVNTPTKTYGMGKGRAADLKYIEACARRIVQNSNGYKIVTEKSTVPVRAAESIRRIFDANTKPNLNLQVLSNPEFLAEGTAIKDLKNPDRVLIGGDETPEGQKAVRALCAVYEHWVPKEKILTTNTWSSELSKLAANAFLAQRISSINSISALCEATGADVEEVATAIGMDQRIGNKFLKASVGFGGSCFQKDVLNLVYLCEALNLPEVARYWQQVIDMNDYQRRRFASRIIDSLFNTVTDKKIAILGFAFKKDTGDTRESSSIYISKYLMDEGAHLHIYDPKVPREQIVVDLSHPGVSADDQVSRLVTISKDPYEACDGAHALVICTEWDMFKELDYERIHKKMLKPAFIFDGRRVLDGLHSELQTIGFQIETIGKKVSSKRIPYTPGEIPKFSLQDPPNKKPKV
UniProt O54946: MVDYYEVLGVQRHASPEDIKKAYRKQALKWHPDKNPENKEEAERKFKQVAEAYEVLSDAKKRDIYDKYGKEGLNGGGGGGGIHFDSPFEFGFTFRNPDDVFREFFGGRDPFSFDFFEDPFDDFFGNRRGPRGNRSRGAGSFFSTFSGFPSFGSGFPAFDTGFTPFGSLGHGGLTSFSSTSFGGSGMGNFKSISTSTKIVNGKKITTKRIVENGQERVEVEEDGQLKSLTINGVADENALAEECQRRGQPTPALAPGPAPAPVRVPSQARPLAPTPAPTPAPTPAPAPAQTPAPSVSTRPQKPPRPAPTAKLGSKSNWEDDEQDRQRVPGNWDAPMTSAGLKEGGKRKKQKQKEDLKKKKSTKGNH
UniProt O35711: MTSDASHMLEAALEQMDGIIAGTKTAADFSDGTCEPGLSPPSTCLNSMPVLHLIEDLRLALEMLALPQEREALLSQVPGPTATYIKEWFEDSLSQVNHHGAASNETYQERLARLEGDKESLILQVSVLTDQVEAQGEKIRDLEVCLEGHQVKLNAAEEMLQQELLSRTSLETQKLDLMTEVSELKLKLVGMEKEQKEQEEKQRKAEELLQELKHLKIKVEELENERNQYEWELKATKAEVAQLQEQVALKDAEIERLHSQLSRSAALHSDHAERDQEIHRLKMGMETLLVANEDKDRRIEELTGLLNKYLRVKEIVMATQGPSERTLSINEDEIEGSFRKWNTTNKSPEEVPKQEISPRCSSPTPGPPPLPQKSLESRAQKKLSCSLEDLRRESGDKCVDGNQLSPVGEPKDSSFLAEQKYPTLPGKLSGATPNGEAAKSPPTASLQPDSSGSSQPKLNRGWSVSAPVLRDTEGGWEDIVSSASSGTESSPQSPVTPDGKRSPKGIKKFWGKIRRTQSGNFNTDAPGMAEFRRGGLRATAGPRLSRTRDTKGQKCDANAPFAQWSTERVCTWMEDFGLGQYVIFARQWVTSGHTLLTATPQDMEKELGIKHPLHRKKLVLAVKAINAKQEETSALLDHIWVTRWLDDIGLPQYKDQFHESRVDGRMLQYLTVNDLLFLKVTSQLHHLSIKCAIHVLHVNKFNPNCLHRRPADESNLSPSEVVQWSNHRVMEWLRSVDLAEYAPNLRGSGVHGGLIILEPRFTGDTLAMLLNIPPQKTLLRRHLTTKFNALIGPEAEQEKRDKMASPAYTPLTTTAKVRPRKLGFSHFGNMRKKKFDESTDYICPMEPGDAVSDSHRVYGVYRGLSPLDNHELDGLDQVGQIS

The targets below were run with CN[C@@H]1C[C@H]2O[C@@](C)([C@@H]1OC)n1c3ccccc3c3c4c(c5c6ccccc6n2c5c31)C(=O)NC4 [staurosporine] (assay: log2 fold change of tryptic peptide abundance, ligand vs vehicle (limited proteolysis) (log2 ratio); higher = more trypsin-susceptible (destabilized)). Conditions: ligand concentration: 20 uM; sample: mouse liver crude lysate; replicate design: treated separately.
“UniProt O35739 (peptide sequence: QDSGSAPSPLSLLHSGVASK, peptide start residue: 115)” gave a log2 fold change of -0.341.
“UniProt O88888 (peptide sequence: IIEVNGQSVVAMPHAR, peptide start residue: 523)” gave a log2 fold change of -0.126.
In the case of “UniProt O35654 (peptide sequence: EISEEHNLVPQPPR, peptide start residue: 110)”, the log2 fold change is reported as -0.131.
Target “UniProt O55142 (peptide sequence: AIFAGYKR, peptide start residue: 9)” has a log2 fold change of 0.389.
“UniProt O70152 (peptide sequence: SLAASPRPPQGR, peptide start residue: 9)” was tested, and the log2 fold change was -0.163.
“UniProt O35892 (peptide sequence: GVLQDPPR, peptide start residue: 456)” was tested, and the log2 fold change was 0.133.
Work on “UniProt O54786 (peptide sequence: FVALACNEK, peptide start residue: 85)” yielded a log2 fold change of -0.485.
“UniProt O54750 (peptide sequence: GTMVLTNLTALHRDPK, peptide start residue: 397)” showed a log2 fold change of 0.273.
“UniProt O70475 (peptide sequence: KMLKPAFIFDGR, peptide start residue: 431)” gave a log2 fold change of 0.142.
“UniProt O54946 (peptide sequence: RGQPTPALAPGPAPAPVRVPSQAR, peptide start residue: 246)” showed a log2 fold change of -0.681.
Work on “UniProt O35711 (peptide sequence: DSSFLAEQKYPTLPGK, peptide start residue: 412)” yielded a log2 fold change of -0.23.
